In the supplement of paper PMC10331698:
± gives the standard deviation of the averaged measurements. Small differences around the control level are noise.

Tests used:
Assay in all cases: level (log10 ratio to DMSO vehicle control); higher = higher biomarker level / cell amount than vehicle control
[1] = compound: O=P(O)(O)CCC(F)(F)C(F)(F)C(F)(F)C(F)(F)C(F)(F)C(F)(F)F [2-(Perfluorohexyl)ethylphosphonic acid]; conditions: 2200 nM; in DMSO
Method: (§1)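 BioMAP Diversity Plus panel of 12 human primary cell co-culture systems (3C, 4H, LPS, SAg, BT, BF4T, BE3C, CASM3C, HDF3CGF, KF3CT, MyoF, Mphg). Compounds were added 1 h before stimulation and left for 24 h (MyoF 48 h; BT 72 h for soluble read-outs or 6 d for IgG). Biomarkers were read by ELISA, cytotoxicity by SRB, PBMC viability and proliferation by Alamar Blue. Each well value was divided by the mean of 8 DMSO control wells on the same plate and log10 transformed; duplicate blinded samples were tested at 4 concentrations.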

[2] = compound: OCCCCC(F)(F)C(F)(F)C(F)(F)C(F)(F)F [4:4 Fluorotelomer alcohol]; conditions: 2200 nM; in DMSO
Method: as §1

[3] = compound: C=CC(=O)OCC(F)(F)C(F)(F)C(F)(F)C(F)(F)C(F)(F)C(F)(F)C(F)(F)F [1H,1H-Perfluorooctyl acrylate]; conditions: 2200 nM; in DMSO
Method: as §1

[4] = compound: O=C(O)C(F)(F)C(F)(F)C(F)F [4H-Perfluorobutanoic acid]; conditions: in DMSO
Method: as §1

[5] = compound: FC(F)(F)C(F)(F)C(F)(F)CC1CO1 [1H,1H-Heptafluorobutyl epoxide]; conditions: 2200 nM; in DMSO
Method: as §1

[6] = compound: OCC(F)(F)C(F)(F)C(F)(F)C(F)(F)C(F)(F)C(F)F [1H,1H,7H-Dodecafluoro-1-heptanol]; conditions: 2200 nM; in DMSO
Method: as §1

[7] = compound: C=CC(F)(F)C(F)(F)C(F)(F)C(F)(F)C(F)(F)C(F)(F)C(F)(F)C(F)(F)C=C [1,8-Divinylperfluorooctane]; conditions: in DMSO
Method: as §1

[8] = compound: CO[Si](C)(CCC(F)(F)C(F)(F)C(F)(F)C(F)(F)C(F)(F)C(F)(F)F)OC [Dimethoxymethyl((perfluorohexyl)ethyl)silane]; conditions: in DMSO
Method: as §1

[9] = compound: COC(=O)C(F)(F)C(F)(F)OC(F)(C(F)(F)F)C(F)(F)OC(F)=C(F)F [Methyl perfluoro(3-(1-ethenyloxypropan-2-yloxy)propanoate)]; conditions: in DMSO
Method: as §1

Pentafluoropropionamide = compound: NC(=O)C(F)(F)C(F)(F)F [Pentafluoropropionamide]; conditions: 2200 nM; in DMSO
Method: as §1

[10] = compound: NS(=O)(=O)C(F)(F)C(F)(F)C(F)(F)C(F)(F)C(F)(F)C(F)(F)C(F)(F)C(F)(F)F [Perfluorooctanesulfonamide]; conditions: in DMSO
Method: as §1

[11] = compound: NC(=O)C(F)(F)C(F)(F)C(F)(F)C(F)F; conditions: in DMSO
Method: as §1

[12] = compound: O=S(=O)(O)C(F)(F)C(F)(F)C(F)(F)C(F)(F)C(F)(F)C(F)(F)C(F)(F)C(F)(F)F [Potassium perfluorooctanesulfonate]; conditions: 2200 nM; in DMSO
Method: as §1

[13] = compound: O=S(=O)(O)C(F)(F)C(F)(F)C(F)(F)C(F)(F)C(F)(F)C(F)(F)C(F)(F)C(F)(F)F [Perfluorooctanesulfonic acid]; conditions: 2200 nM; in DMSO
Method: as §1

[14] = compound: O=S(=O)(F)C(F)(F)C(F)(F)C(F)(F)C(F)(F)C(F)(F)C(F)(F)C(F)(F)C(F)(F)F [Perfluorooctanesulfonyl fluoride]; conditions: 2200 nM; in DMSO
Method: as §1

[15] = compound: C=C(C)C(=O)OCC(F)(F)C(F)(F)C(F)(F)C(F)(F)C(F)(F)C(F)(F)C(F)(F)F; conditions: in DMSO
Method: as §1

[16] = compound: O=S(=O)(OCC(F)(F)F)C(F)(F)C(F)(F)C(F)(F)C(F)(F)F [2,2,2-Trifluoroethyl perfluorobutanesulfonate]; conditions: 2200 nM; in DMSO
Method: as §1

Heptafluorobutyl iodide = compound: FC(F)(F)C(F)(F)C(F)(F)CI [Heptafluorobutyl iodide]; conditions: 2200 nM; in DMSO
Method: as §1

Test System	level (log10) [1]	level (log10) [2]	level (log10) [3]	level (log10) ([4]; 2200 nM)	level (log10) ([4]; 6700 nM)	level (log10) ([4]; 20000 nM)	level (log10) ([4]; 60000 nM)	level (log10) [5]	level (log10) [6]	level (log10) ([7]; 740 nM)	level (log10) ([7]; 2200 nM)	level (log10) ([8]; 740 nM)	level (log10) ([8]; 2200 nM)	level (log10) ([9]; 740 nM)	level (log10) ([9]; 2200 nM)	level (log10) (Pentafluoropropionamide)	level (log10) ([10]; 2200 nM)	level (log10) ([10]; 6700 nM)	level (log10) ([10]; 20000 nM)	level (log10) ([11]; 2200 nM)	level (log10) ([11]; 6700 nM)	level (log10) ([11]; 20000 nM)	level (log10) ([11]; 60000 nM)	level (log10) [12]	level (log10) [13]	level (log10) [14]	level (log10) ([15]; 740 nM)	level (log10) ([15]; 2200 nM)	level (log10) [16]	level (log10) (Heptafluorobutyl iodide)
3C:CCL2/MCP-1	0.0045 ± 0.023	0.022 ± 0.038	0.01 ± 0.033	-0.0035 ± 0.015	-0.02 ± 0.061	-0.006 ± 0.05	0.0215 ± 0.03	0.006 ± 0.018	0.0155 ± 0.019	0.0105 ± 0.028	-0.0015 ± 0.029	0.0085 ± 0.043	-0.006 ± 0.0028	0.0075 ± 0.0064	0.0015 ± 0.0035	0.019 ± 0.025	0.025 ± 0.024	-0.0015 ± 0.0021	0.085 ± 0.0057	-0.013 ± 0.018	-0.01 ± 0.013	-0.0135 ± 0.011	0.015 ± 0.042	0.022 ± 0.035	0.019 ± 0.028	-0.001 ± 0.035	0.011 ± 0.024	0.0035 ± 0.0078	0.02 ± 0.05	0.016 ± 0.023
KF3CT:CCL2/MCP-1	-0.0145 ± 0.063	-0.0065 ± 0.0078	-0.0375 ± 0.054	-0.0325 ± 0.025	-0.0705 ± 0.0092	-0.032 ± 0.0099	-0.0115 ± 0.023	-0.0075 ± 0.071	0.0385 ± 0.073	0.005 ± 0.054	-0.017 ± 0.011	0.001 ± 0.042	-0.032 ± 0.013	-0.0115 ± 0.00071	0.0095 ± 0.0021	0.0015 ± 0.036	0.0555 ± 0.03	0.025 ± 0.016	0.116 ± 0.037	0.012 ± 0.067	-0.0055 ± 0.018	-0.0245 ± 0.0078	0.0205 ± 0.026	0.019 ± 0.024	-0.0035 ± 0.015	-0.014 ± 0.0028	0.03 ± 0.089	-0.005 ± 0.028	-0.005 ± 0.024	-0.005 ± 0.013
BF4T:IL-1alpha	0.01 ± 0.011	0.0075 ± 0.022	0.004	-0.012 ± 0.0014	-0.02 ± 0.0014	-0.019 ± 0.014	0.0085 ± 0.012	0.0155 ± 0.00071	0.0095 ± 0.022	0.0035 ± 0.042	-0.013 ± 0.0014	0.0045 ± 0.028	-0.0185 ± 0.0021	0.0005 ± 0.0035	-0.0085 ± 0.005	0.0045 ± 0.021	0.0275 ± 0.033	0.0095 ± 0.012	-0.0455 ± 0.022	0.0165 ± 0.018	-0.0175 ± 0.021	-0.004 ± 0.0028	-0.002 ± 0.0057	0.0155 ± 0.013	-0.0085 ± 0.0092	0.003 ± 0.014	0.0175 ± 0.035	-0.002 ± 0.0057	0.0025 ± 0.012	0.0185 ± 0.023
KF3CT:SRB	0.0065 ± 0.013	-0.0085 ± 0.00071	0.0005 ± 0.013	0.0025 ± 0.0035	-0.005 ± 0.0071	-0.0065 ± 0.0064	-0.008 ± 0.0014	0.0025 ± 0.015	0.0185 ± 0.028	-0.0085 ± 0.019	-0.0185 ± 0.025	0.0015 ± 0.015	-0.0055 ± 0.00071	0.015 ± 0.0042	-0.0035 ± 0.005	0.0045 ± 0.013	0.0055 ± 0.00071	-0.0035 ± 0.015	-0.0455 ± 0.029	0.0115 ± 0.016	-0.006 ± 0.0028	-0.0005 ± 0.0064	-0.002 ± 0.013	0.0005 ± 0.015	-0.004	0.0025 ± 0.0064	0.009 ± 0.03	-0.0065 ± 0.021	0.0035 ± 0.015	0.0025 ± 0.0064
